Measurements reported in patent US9682928B2 (NeuroPro Therapeutics, Inc., priority 2009, dated 2017).

Columns and labels:
[1] = oral; cited from earlier work

Q: Which results are given for `NS(=O)(=O)c1cc(C(=O)O)c(NCc2ccco2)cc1Cl` [Furosemide]?
A: Low-[Cl−]o-induced slow oscillations in CA1 (rat hippocampal slices; 2.5 mM furosemide, [K+]o 12 mM, [Cl−]o 16 mM): completely blocked; Exposure time to cessation of spontaneous bursting (CA1 before CA3) (rat hippocampal slices; furosemide-containing (2.5 mM) or low-chloride medium, high-[K+]o, bicuculline or 4-AP): 30 to 40 min; Absorption in the intestine [1]: 40%
